Results on six molecules are retold here after doi:10.1101/2020.01.03.894170.

Amino acid sequences for entries named in this document (tags omitted).
UniProt Q9SZI2: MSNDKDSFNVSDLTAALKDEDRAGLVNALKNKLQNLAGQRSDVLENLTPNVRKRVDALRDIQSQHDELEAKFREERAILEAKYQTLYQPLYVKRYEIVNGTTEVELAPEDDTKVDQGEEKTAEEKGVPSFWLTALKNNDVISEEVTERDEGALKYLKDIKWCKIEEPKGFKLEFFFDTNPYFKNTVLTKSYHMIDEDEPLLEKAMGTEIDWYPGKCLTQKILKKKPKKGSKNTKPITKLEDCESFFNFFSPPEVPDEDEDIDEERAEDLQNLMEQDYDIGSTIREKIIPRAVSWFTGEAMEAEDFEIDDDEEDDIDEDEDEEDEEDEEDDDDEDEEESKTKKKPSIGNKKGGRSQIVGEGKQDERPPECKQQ
UniProt Q94K07: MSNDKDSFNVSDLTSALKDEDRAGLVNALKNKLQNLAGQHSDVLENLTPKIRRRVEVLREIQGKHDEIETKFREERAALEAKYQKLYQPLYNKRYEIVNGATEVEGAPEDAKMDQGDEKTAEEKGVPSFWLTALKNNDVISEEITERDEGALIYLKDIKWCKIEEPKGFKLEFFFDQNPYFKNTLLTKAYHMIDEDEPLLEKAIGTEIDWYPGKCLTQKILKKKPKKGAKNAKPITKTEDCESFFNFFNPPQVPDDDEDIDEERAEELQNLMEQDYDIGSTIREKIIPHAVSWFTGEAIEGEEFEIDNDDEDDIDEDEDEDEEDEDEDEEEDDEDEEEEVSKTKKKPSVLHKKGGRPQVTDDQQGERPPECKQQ

Assay [1] deals with T1, nYFP/FAS1 (BiFC fusion) (Arabidopsis thaliana) (UniProt Q9SXY0).
T1 sequence: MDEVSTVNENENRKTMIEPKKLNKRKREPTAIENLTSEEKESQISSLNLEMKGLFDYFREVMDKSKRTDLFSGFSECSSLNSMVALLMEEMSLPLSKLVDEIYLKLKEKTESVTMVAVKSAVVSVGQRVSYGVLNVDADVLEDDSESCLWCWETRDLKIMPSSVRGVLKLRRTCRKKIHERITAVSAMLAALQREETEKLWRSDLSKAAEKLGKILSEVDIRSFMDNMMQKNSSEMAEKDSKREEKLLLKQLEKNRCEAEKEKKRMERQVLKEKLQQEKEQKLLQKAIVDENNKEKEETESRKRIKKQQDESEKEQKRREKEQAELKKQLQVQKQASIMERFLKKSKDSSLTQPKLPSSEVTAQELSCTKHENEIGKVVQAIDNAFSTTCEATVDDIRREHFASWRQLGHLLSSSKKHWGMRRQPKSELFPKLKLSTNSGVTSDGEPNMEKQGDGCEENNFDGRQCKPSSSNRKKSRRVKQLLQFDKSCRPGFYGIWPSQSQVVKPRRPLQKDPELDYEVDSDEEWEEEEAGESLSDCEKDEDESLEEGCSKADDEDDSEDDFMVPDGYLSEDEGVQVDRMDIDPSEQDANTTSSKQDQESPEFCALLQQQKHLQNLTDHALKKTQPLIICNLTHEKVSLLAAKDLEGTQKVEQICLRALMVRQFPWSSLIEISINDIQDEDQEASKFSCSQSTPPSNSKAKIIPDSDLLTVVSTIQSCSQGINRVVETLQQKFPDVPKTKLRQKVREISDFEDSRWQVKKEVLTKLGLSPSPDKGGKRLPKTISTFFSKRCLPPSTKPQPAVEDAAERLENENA
The experiment in a line: split reporter.

The target of assay [2] is T2, FASCIATA1 (FAS1), yeast two-hybrid fusion (Arabidopsis thaliana) (UniProt Q9SXY0).
T2 sequence: T1 sequence
The assay can be described thus: two-hybrid.

The target of assay [3] is NUCLEOSOME ASSEMBLY PROTEIN 1;1 (NAP1;1), yeast two-hybrid fusion (Arabidopsis thaliana) (UniProt Q9SZI2). The assay can be described thus: two-hybrid.
For assay [4], the target named is cYFP/NAP1;1 (BiFC fusion) (Arabidopsis thaliana) (UniProt Q9SZI2). The assay can be described thus: split reporter.
Assay [5] has as its target T3, FASCIATA1 (FAS1), yeast two-hybrid fusion (Arabidopsis thaliana), Q9SXY0.
T3 chain: T1 sequence
The assay can be described thus: two-hybrid. The following applies: remark: other sources report otherwise.

The target in assay [6] is T4, nYFP/FAS1 (BiFC fusion) (Arabidopsis thaliana), Q9SXY0.
T4 chain: T1 sequence
The assay can be described thus: split reporter. The note with it: remark: other sources report otherwise.

Results are given in words; binding and its absence hold for the method and conditions named. For some assays here: In cells and extracts the contact can be indirect. Some entries that bind do so weakly or less than the wild type. For some assays here: Tags and fused reporters may be left off the sequences shown.

For “cYFP/NAP1;3 (BiFC fusion) (from UniProt Q94K07 1-374)”, the binding entry in assay [1] is “no binding”.
In the case of “NUCLEOSOME ASSEMBLY PROTEIN 1;3 (NAP1;3), yeast two-hybrid fusion (from UniProt Q94K07 1-374)”, the binding result in assay [2] is “no binding”.
Consider “NUCLEOSOME ASSEMBLY PROTEIN 1;1 (NAP1;1), yeast two-hybrid fusion (from UniProt Q9SZI2 1-372)”, for which the results for the binding entry in assay [2] and in assay [3] were “no binding” and “binds”, respectively.
“cYFP/NAP1;1 (BiFC fusion) (from UniProt Q9SZI2 1-372)”: the values for the binding entry in assay [1] and in assay [4] were “no binding” and “binds”, respectively.

B1: ANTI-… FUNCTION 1 (ASF1a), yeast two-hybrid fusion, Q9C9M6 1-196 (protein)
chain: MSAIKITNVAVLHNPAPFVSPFQFEISYECLNSLKDDLEWKLIYVGSAEDETYDQLLESVLVGPVNVGNYRFVFQADPPDPSKIQEEDIIGVTVLLLTCSYMGQEFLRVGYYVNNDYEDEQLKEEPPTKVLIDKVQRNILSDKPRVTKFPIDFHPEEEQTAATAAPPEQSDEQQPNVNGEAQVLPDQSVEPKPEES
In the case of B1, the binding result in assay [5] is “binds”.

B2: ASF1a (BiFC fusion), Q9C9M6 1-196 (protein)
chain: B1 chain
As to B2, in assay [6], the binding result is reported as “binds”.
